# Assay results: PubChem BioAssay AID540256 (National Center for Advancing Translational Sciences (NCATS), 2011)
# Among all 300,000 compounds or so, about 3,700 (1.2%) were called active. This list was built around the results that the source calls inconclusive (neither active nor inactive); the mix of calls is not that of the screen. Calls follow the shape of the full dose curve; tested in HEK293 cells. Where the call is inconclusive, the potency comes from a doubtful curve fit.
# Test: qHTS for Inhibitors of binding or entry into cells for Lassa Virus; also: nearly all actives have a fitted effect of over 50% in size
# Conditions: Lassa virus pseudotype entry inhibition, cell reporter; activity change, negative = inhibition: at 37.9 µM (top of the series) unless noted
# % is scaled to controls: 0 for no effect and ±100 for the full control effect; potency is read from the fitted curve at half-maximal effect.
Compound,Potency,"activity change, negative = inhibition"
CCOC(=O)c1cc(-c2ccccc2)n(CCC(=O)N2CCN(c3ccccn3)CC2)c1C,"inconclusive: 8.91 µM [inhibitor, partial curve, poor fit]",–
Cc1cc(NC(=O)CSc2nc3c(sc4ccccc43)c(=O)n2CCCN2CCOCC2)n[nH]1,"inconclusive: 3.66 µM [activator, single point]",–
CCO/N=C(\C)c1c(O)c(CC)c(-c2ccccc2)n(-c2ccccc2)c1=O,"inconclusive: 28.2 µM [inhibitor, single point]",–
CCN1CCCC1CN(Cc1cc2ccc(C)cc2[nH]c1=O)C(=S)Nc1cccc(OC)c1 (stereo not drawn),"inconclusive: 29.1 µM [inhibitor, single point]",–
CCC(NS(=O)(=O)c1ccc(OC)cc1)C(=O)NCCc1ccccc1 (stereo not drawn),–,inactive: -28.7% [at 46.1 µM]
O=C(Nc1nnc(C2CCCO2)s1)c1ccc(Br)cc1 (stereo not drawn),"inconclusive: 2.91 µM [activator, full curve, poor fit]",–
O=C(CSCc1ccc(Cl)cc1)Nc1cccc(C(=O)O)c1,"inconclusive: 3.55 µM [activator, single point]",–
COc1ccc(C(c2c(NC(=O)c3ccco3)sc(C)c2C)N2CCOCC2)cc1 (stereo not drawn),"inconclusive: 14.1 µM [inhibitor, partial curve, poor fit]",–
NC(=O)c1cc(N2CC2)c([N+](=O)[O-])cc1[N+](=O)[O-],–,inactive: -15%
Cc1cc(C)c(S(=O)(=O)N2CCN(S(=O)(=O)N3CCCCCC3)CC2)c(C)c1,"inconclusive: 6.31 µM [inhibitor, single point]",–
Cc1cc(C)cc(NC(=O)C(c2ccccc2)N2CCCC2)c1 (stereo not drawn),"inconclusive: 2.24 µM [activator, partial curve]",–
O=C(NCCc1ccc2c(c1)OCCO2)c1cc(F)cc(F)c1,"inconclusive: 1 µM [inhibitor, full curve, poor fit]",–
CCN(CC)S(=O)(=O)c1ccc2oc(C(=O)NCCCN3CCOCC3)c(C)c2c1,–,inactive: -19.7%
O=C(CN1CC(=O)Oc2ccccc21)OCC(=O)c1ccc(Br)cc1,"inconclusive: 10 µM [inhibitor, partial curve]",–
Cc1nc(C)c(C(=O)OCC(=O)NCCc2ccc(F)cc2)s1,–,inactive: 6.01%
CCOc1ccc(C(=O)N2CCC(c3nc(-c4ccc(S(=O)(=O)N5CCCC5)cc4)no3)CC2)cc1,"inconclusive: 35.5 µM [inhibitor, single point]",–
COc1ccc(Oc2nc3ccccc3n(C)c2=O)cc1,"inconclusive: 6.51 µM [inhibitor, single point]",–
CCOC(=O)CCCCC(=O)c1[nH]c(=O)[nH]c1CSCCO,–,inactive: -4.01%
C=CCOc1ccccc1CN(C(=O)CCl)c1ccc2c(c1)OCO2,–,inactive: -18.8%
COC(=O)CC=C[C@@H](C)[C@H](OC)c1c(Br)ccc2c1OCO2,"inconclusive: 0.0168 µM [activator, partial curve, poor fit]",–
O=[N+]([O-])c1ccc(O)c(/C=N/Nc2ccccn2)c1,"inconclusive: 2.82 µM [inhibitor, partial curve, poor fit]",–

Compound,Potency,"activity change, negative = inhibition"
CN1CCN(NC(=S)NC(C)(C)CC(C)(C)C)CC1,"inconclusive: 0.355 µM [activator, single point]",–
Cc1ccccc1-n1cnc2cc(NCc3cccs3)ccc21,"inconclusive: 5.8 µM [inhibitor, full curve, poor fit]",–
CC(C)(C)OC(=O)COc1cc(OCC(=O)OC(C)(C)C)c2c(=O)cc(-c3ccccc3)oc2c1,"inconclusive: 11.6 µM [inhibitor, partial curve, poor fit]",–
Cc1ccc(Cl)cc1N1CCN(C(=O)Cc2c(C(=O)O)c(C)cn2C)CC1,–,inactive: 0.823% [at 46.1 µM]
O=C(NCc1ccc(Cl)cc1)C(=O)NCC(c1cccnc1)N1CCN(c2ccc(F)cc2)CC1 (stereo not drawn),"inconclusive: 35.5 µM [inhibitor, single point]",–
Cc1ccccc1-n1c(SCC(=O)c2cc(C)n(C)c2C)nnc1-c1ccncc1,"inconclusive: 10.3 µM [inhibitor, partial curve, poor fit]",–
COc1cccc(C(=O)Cn2c(=N)n(C)c3ccccc32)c1,"inconclusive: 12.6 µM [inhibitor, partial curve, poor fit]",–
CCOC(=O)C(/C(N)=N/C(=O)Nc1ccccc1)=C(\C)O,–,inactive: 12%
Oc1cccc(C=NNc2ccccn2)c1,"inconclusive: 35.5 µM [activator, single point]",–
COc1ccc(/C=C/C(=O)Nc2ccccc2C(=O)NCC(c2ccc(OC)cc2)N(C)C)cc1 (stereo not drawn),"inconclusive: 12.6 µM [inhibitor, partial curve, poor fit]",–
COc1ccc(C(=O)NN(C)c2nc(-c3ccccc3)nnc2C(F)(F)F)cc1,–,inactive: -10.5%
O=C(/C=C/c1ccc([N+](=O)[O-])cc1)OCC(=O)N1c2ccccc2Sc2ccccc21,"inconclusive: 0.708 µM [inhibitor, single point]",–
CS(=O)(=O)N1CCN(c2ccc(NC(=O)c3ccc(Br)o3)cc2)CC1,"inconclusive: 3.98 µM [activator, full curve, poor fit]",–
COc1ccc(CCNCc2c(-c3ccccc3)n(C)c3ccccc23)cc1,active: 8.91 µM,–
NC(=O)CSc1ccc(F)cc1,–,inactive: -6.85% [at 46.1 µM]
COc1ccccc1NC(=O)c1nnn(-c2ccc(F)cc2)c1C,–,inactive: 7.08% [at 46.1 µM]
COc1ccc(C(=O)NNC(=O)CN2CCC(n3nnc4cc(C)ccc43)CC2)cc1,–,inactive: -2.93%
O=C(c1ccccc1)C1OC1C(=O)c1ccccc1 (stereo not drawn),"inconclusive: 2.51 µM [inhibitor, partial curve, poor fit]",–
C=C(NC(=O)C(=C)NC(=O)c1csc(C2=NC3c4csc(n4)C4NC(=O)c5csc(n5)C(C(C)(O)C(C)O)NC(=O)C5CSC(=N5)/C(=C/C)NC(=O)C(C(C)O)NC(=O)c5csc(n5)C3(CC2)NC(=O)C(C)NC(=O)C(=C)NC(=O)C(=C)NC(=O)C(C(C)C)NC2C=Cc3c(C(C)O)cc(nc3C2O)C(=O)OC4C)n1)C(N)=O (stereo not drawn),active: 6.31 µM,–
COc1ccc(-c2cc(C(=O)OCC(=O)N3CCCCC3)c3ccccc3n2)cc1OC,"inconclusive: 25.1 µM [inhibitor, single point]",–
COc1ccc(NP(=O)(Oc2ccc(Cl)cc2)Oc2ccc(Cl)cc2)cc1OC,"inconclusive: 29.1 µM [inhibitor, single point]",–

# By substructure, those above containing two or more sulfur atoms
Compound,Potency,"activity change, negative = inhibition"
Cc1cc(NC(=O)CSc2nc3c(sc4ccccc43)c(=O)n2CCCN2CCOCC2)n[nH]1,"inconclusive: 3.66 µM [activator, single point]",–
Cc1cc(C)c(S(=O)(=O)N2CCN(S(=O)(=O)N3CCCCCC3)CC2)c(C)c1,"inconclusive: 6.31 µM [inhibitor, single point]",–
C=C(NC(=O)C(=C)NC(=O)c1csc(C2=NC3c4csc(n4)C4NC(=O)c5csc(n5)C(C(C)(O)C(C)O)NC(=O)C5CSC(=N5)/C(=C/C)NC(=O)C(C(C)O)NC(=O)c5csc(n5)C3(CC2)NC(=O)C(C)NC(=O)C(=C)NC(=O)C(=C)NC(=O)C(C(C)C)NC2C=Cc3c(C(C)O)cc(nc3C2O)C(=O)OC4C)n1)C(N)=O (stereo not drawn),active: 6.31 µM,–

# Later entries

Compound,Potency,"activity change, negative = inhibition"
CCc1ccc(NC(=O)Cn2c(=O)n(Cc3ccc4c(c3)OCO4)c(=O)c3oc4ccccc4c32)cc1,–,inactive: -9.44% [at 46.1 µM]
CCc1ccc(N2CC(C(=O)N/N=C/c3ccccc3OC)CC2=O)cc1 (stereo not drawn),"inconclusive: 1.26 µM [inhibitor, single point]",–
Cc1ccc(S(=O)(=O)N(CC(=O)NCCSc2ccccn2)c2ccccc2F)cc1,"inconclusive: 35.5 µM [inhibitor, single point]",–
CCOC(=O)NC(O)C(=O)c1ccc(F)cc1 (stereo not drawn),–,inactive: -0.325%
CCN(CC)C(=O)C1CCCN(C(=O)c2oc3ccc(C)cc3c2C)C1 (stereo not drawn),"inconclusive: 7.08 µM [inhibitor, partial curve, poor fit]",–
COc1ccc(S(=O)(=O)N2CCC(C(=O)N3CCCCC3)CC2)cc1,–,inactive: -24.9%
COc1cccc(C(NC(=O)c2ccccc2F)NC(=O)c2ccccc2F)c1,"inconclusive: 0.291 µM [inhibitor, partial curve, poor fit]",–
CC(C)N(C(=O)c1sc2cc([N+](=O)[O-])ccc2c1Cl)C(C)C,"inconclusive: 6.51 µM [activator, single point]",–
Cc1cccc(C)c1NC(=O)CSc1cc(C(=O)c2nccn2C)c2ccccc2n1,"inconclusive: 35.5 µM [inhibitor, single point]",–
Cc1ccc(C2=NOC(=O)/C2=C\C=C\c2ccccc2)cc1,"inconclusive: 22.4 µM [inhibitor, single point]",–
COc1cc(CNCCNC(=O)c2nonc2N)ccc1OCc1ccc(Cl)cc1,"inconclusive: 17.8 µM [inhibitor, single point]",–
Oc1cc2c(cc1CN1CCN(c3ccc(F)cc3)CC1)OCO2,–,inactive: 8.58%
CN(C)c1cc[n+](Cc2c(Cl)cccc2Cl)cc1,"inconclusive: 9.2 µM [inhibitor, partial curve, poor fit]",–
CCOC(=O)C1CCCN(C2=NC(=O)/C(=C/c3ccc(O)c(OCC)c3)S2)C1 (stereo not drawn),"inconclusive: 2 µM [inhibitor, full curve, poor fit]",–
Cc1cc2oc(=O)c(CC(=O)NCCCN(C)C)c(C)c2c2occ(C(C)(C)C)c12,"inconclusive: 11.2 µM [inhibitor, partial curve, poor fit]",–
CCOc1ccc2nc(CN3CCN(Cc4ccccc4OCC)C(CCO)C3)ccc2c1 (stereo not drawn),"inconclusive: 1.12 µM [activator, single point]",–
COc1ccc(N(CC(=O)NC2CC3CCC2C3)S(=O)(=O)c2ccc(C)cc2)cc1OC (stereo not drawn),"inconclusive: 5.01 µM [inhibitor, full curve, poor fit]",–
O=S1(=O)[C@H]2C[C@H]3O[C@]2(CN1Cc1ccc(C(F)(F)F)cc1)[C@@H]1O[C@@H]13,"inconclusive: 25 µM [activator, single point]",–
O=c1c(-c2ccc([N+](=O)[O-])cc2)coc2c(O)c(O)ccc12,"inconclusive: 35.5 µM [inhibitor, single point]",–
O=C(/C=C/c1cccs1)Nc1ccc(Br)cn1,"inconclusive: 35.5 µM [inhibitor, single point]",–
CCOc1cc(N2CCOCC2)c(OCC)cc1NC(=O)[C@H](C)NC(=O)c1ccco1,"inconclusive: 1.26 µM [inhibitor, single point]",–
